Reference: US7741288B2, “Methods of screening of PP1-interacting polypeptides or proteins, peptides inhibiting PP1c binding to Bcl-2 proteins, Bcl-xL and Bcl-w, and uses thereof” (Institut Pasteur, priority 2002, dated 2010)
No constants are given. Whether binding was seen depends on the method and setting. For some assays here: In cells and extracts the contact can be indirect. Some entries that bind do so weakly or less than the wild type.

Amino acid sequences for entries named in this document (tags omitted). Residues count along the entry.
UniProt Q64373: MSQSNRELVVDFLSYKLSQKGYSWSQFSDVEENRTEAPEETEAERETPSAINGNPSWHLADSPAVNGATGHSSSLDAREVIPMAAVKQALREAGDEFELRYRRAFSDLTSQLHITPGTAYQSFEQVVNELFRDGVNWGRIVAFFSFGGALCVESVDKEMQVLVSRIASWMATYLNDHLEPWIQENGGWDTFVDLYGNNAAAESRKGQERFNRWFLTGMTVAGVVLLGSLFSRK
UniProt P62137, residues 2-330: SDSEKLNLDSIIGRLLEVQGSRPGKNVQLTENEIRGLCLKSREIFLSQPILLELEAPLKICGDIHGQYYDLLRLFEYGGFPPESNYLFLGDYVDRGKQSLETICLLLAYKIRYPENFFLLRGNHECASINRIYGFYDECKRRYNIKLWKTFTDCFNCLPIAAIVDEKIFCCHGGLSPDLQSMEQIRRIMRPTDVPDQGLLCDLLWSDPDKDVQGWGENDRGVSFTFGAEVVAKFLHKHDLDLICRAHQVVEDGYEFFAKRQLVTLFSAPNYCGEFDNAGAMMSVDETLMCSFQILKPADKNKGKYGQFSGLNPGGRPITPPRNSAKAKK
UniProt P06332, residues 27-457: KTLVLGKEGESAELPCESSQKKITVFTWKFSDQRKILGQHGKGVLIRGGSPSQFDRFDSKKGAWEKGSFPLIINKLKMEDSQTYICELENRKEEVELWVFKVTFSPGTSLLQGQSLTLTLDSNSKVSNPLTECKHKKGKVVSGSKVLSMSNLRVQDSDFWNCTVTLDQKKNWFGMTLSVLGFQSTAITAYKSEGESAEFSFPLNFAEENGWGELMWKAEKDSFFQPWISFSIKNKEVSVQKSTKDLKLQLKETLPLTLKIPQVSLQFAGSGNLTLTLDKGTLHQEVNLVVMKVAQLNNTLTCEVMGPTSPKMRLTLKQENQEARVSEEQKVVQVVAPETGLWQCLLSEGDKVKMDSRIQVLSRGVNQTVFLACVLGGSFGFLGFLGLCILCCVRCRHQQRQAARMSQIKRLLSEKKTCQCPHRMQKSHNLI

Legend:
[1] = molecular target: Bcl-xL, endogenous in TS1αβ cells (murine (TS1αβ murine T cell line)) (UniProt Q64373); experiment: co-immunoprecipitation with anti-Bcl-xL from cytoplasmic extracts, Western blot
[2] = molecular target: T1, Bcl-w, endogenous in TS1αβ cells (murine (TS1αβ murine T cell line)) (UniProt P70345); experiment: co-immunoprecipitation with anti-Bcl-w from cytoplasmic extracts, Western blot
T1 sequence (serine phosphorylated in IL-4-stimulated cells (site not stated), looked up): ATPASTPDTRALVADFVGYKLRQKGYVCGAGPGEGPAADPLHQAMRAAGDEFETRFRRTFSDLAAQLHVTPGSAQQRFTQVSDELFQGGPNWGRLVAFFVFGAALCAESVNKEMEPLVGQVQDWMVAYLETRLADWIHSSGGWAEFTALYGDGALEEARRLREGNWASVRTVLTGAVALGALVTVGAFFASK

[3] = molecular target: PP1c, catalytic subunit of the serine/threonine phosphatase PP1, endogenous in TS1αβ cells (murine (TS1αβ murine T cell line)) (UniProt P62137); experiment: immunoprecipitation from IL-4 treated TS1αβ cells, blot with anti-PP1c
[4] = molecular target: PP1c, catalytic subunit of the serine/threonine phosphatase PP1, endogenous in TS1αβ cells (murine (TS1αβ murine T cell line)) (UniProt P62137); experiment: co-immunoprecipitation, blot with anti-PP1c
[5] = molecular target: T2, Bad, endogenous in TS1αβ cells (murine (TS1αβ murine T cell line)) (UniProt Q61337); experiment: co-immunoprecipitation with anti-Bad from freshly isolated thymocytes, Western blot
T2 sequence (phosphoserine 136 in IL-4-stimulated cells, looked up): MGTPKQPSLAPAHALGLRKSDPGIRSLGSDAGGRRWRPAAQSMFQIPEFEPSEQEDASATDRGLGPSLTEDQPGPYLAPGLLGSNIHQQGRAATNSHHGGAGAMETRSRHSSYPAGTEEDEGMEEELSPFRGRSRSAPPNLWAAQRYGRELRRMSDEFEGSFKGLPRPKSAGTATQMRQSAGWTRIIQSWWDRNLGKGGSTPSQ

[6] = molecular target: T2, Bad, endogenous in TS1αβ cells (murine (TS1αβ murine T cell line)); experiment: co-immunoprecipitation with anti-Bad, Western blot (also detergent-free and digitonin lysates, data not shown)
[7] = molecular target: PP1c, catalytic subunit of the serine/threonine phosphatase PP1, endogenous in TS1αβ cells (murine (TS1αβ murine T cell line)) (UniProt P62137); experiment: anti-PP1c immunoprecipitation of control extracts of IL-4 stimulated cells, Western blot
[8] = molecular target: T2, Bad, endogenous in TS1αβ cells (murine (TS1αβ murine T cell line)); experiment: control anti-Bad immunoprecipitates of the competition experiment, Western blot
[9] = molecular target: T2, Bad, endogenous in TS1αβ cells (murine (TS1αβ murine T cell line)); experiment: anti-Bad immunoprecipitation of control extracts of IL-4 stimulated cells, Western blot
[10] = molecular target: T2, Bad, endogenous in TS1αβ cells (murine (TS1αβ murine T cell line)); experiment: co-immunoprecipitation and Western blot, title of FIG. 1
[11] = molecular target: PP1c, catalytic subunit of the serine/threonine phosphatase PP1, endogenous in TS1αβ cells (murine (TS1αβ murine T cell line)) (UniProt P62137); experiment: as above
[12] = molecular target: PP1c, catalytic subunit of the serine/threonine phosphatase PP1, endogenous in TS1αβ cells (murine (TS1αβ murine T cell line)) (UniProt P62137); experiment: co-immunoprecipitation with anti-PP1c from freshly isolated thymocytes, Western blot

Measured: binding

PP1c, catalytic subunit of the serine/threonine phosphatase PP1, endogenous in TS1αβ cells (from UniProt P62137 2-330) (enzyme)
binds: [1] | [2]

CD4, endogenous in TS1αβ cells (from UniProt P06332 27-457) (receptor)
binds: [3] | [4]

Bcl-xL, endogenous in TS1αβ cells (from UniProt Q64373 1-233)
not listed: [1] | [2] | [3] | [4]
binds: all other assays above

B1: Bad, endogenous in TS1αβ cells (protein, murine (TS1αβ murine T cell line), UniProt Q61337 1-204, looked up)
chain: T2 sequence (phosphoserine 136 in IL-4-stimulated cells, looked up)
modifications: phosphoserine 136 in IL-4-stimulated cells
binds: [1] | [2]

B2: Bcl-w, endogenous in TS1αβ cells (protein, murine (TS1αβ murine T cell line), UniProt P70345 2-193, looked up)
chain: T1 sequence (serine phosphorylated in IL-4-stimulated cells (site not stated), looked up)
modifications: serine phosphorylated in IL-4-stimulated cells (site not stated)
binds: [6] | [7] | [8] | [9] | [10] | [11]
